Assay results reported in patent publication US20030096264A1, “Multi-parameter high throughput screening assays (MPHTS)” (Psychiatric Genomics, Inc., priority 2001, published 2003).
At least one structure is not confirmed: it was looked up by name or label, or the drawing left a doubt.

Assays:
NBFL cell line = assay: RT-PCR validation of differential expression in NBFL cells treated with valproate; assay type: cell-based, human; settings: valproate treated vs untreated, normalized to GAPDH; control gene (+/− one-fold)
Protocol: To validate differential expression measurements that were obtained using microarrays, expression levels were also measured using a reverse transcription polymerase chain reaction (RT-PCR) assay for five genes having the highest expression ratio in Table 3: nidogen (SEQ ID NO:25; σ=1.7), silver (SEQ ID NO:26; σ=1.6), dopamine β-hydroxylase (SEQ ID NO:53; σ=-1.7), dopa decarboxylase (SEQ ID NO:54; σ=−2) and chromogranin B (SEQ ID NO:55; σ=−2.1). These RT-PCR experiments were performed according to routine methods that are known in 10 the art. Briefly, RNA from the NBFL cell line treated with or without valproate was primed with oligo-dT and reverse transcribed. […] The amount of PCR product generated from each sample was normalized to the amount of GAPDH amplified from each sample and a fold-change relative to valproate treatment was calculated. β-actin was used as an additional control.
The results from these experiments are shown graphically in FIG. 3. As expected, no change in β-actin (B-ACT) expression was detected (+/− one-fold) when cells were treated with valproate. However, a greater than 2-fold change in expression levels was measured for each of the five other genes tested: nidogoen (NID), silver (SIL), dopamine β-hydroxylase (DBH), dopa decarboxylase (DDC) and chromogranin B (CG-B).

[1] = tested on: rat (rattus norvegicus) neuronal cells; assay: Microarray expression profile of primary rat cortical neurons incubated with valproate; assay type: cell-based; settings: rat neuronal cells with valproate compared with reported human schizophrenia ratios (Hakak et al.)
Text: This example describes experiments, which analyzed changes in the expression profile for rat (rattus norvegicus) neuronal cells induced by valproate, a drug used clinically to treat neuropsychiatric disorders such as bipolar disorder. […] Expression profiles for these genes are compared to expression profiles for orthologous genes in human schizophrenia patients.
Primary neuron cells were isolated from E19 rat embryos and cultured as follows. First, the cortex was dissected from each embryo and placed in HBSS solution. The HBSS solution was subsequently removed and replaced with 5 ml papain solution at a concentration of 10 units per ml. […] The volume of the cell suspensions was brought up to 15 ml and the cells were counted. […]
mRNA was extracted from each group of cultures and expression profiles were measured on microarrays according to standard techniques (see the Detailed Description section, infra). Data from duplicate microarrays was statistically evaluated to identify genes that are differentially expressed in the presence of valproate, relative to expression levels in the absence of valproate.
Table 1, below, lists the twelve genes identified in these experiments as being differentially expressed in the presence of valproate, relative to its expression level in the absence of valproate. […] The “expression ratio” measured for each gene is also specified. […]

With CCCC(CCC)C(=O)O [valproate] the “change in β-actin (B-ACT) expression by RT-PCR” value (NBFL cell line) was “no change” and the “effect on the abnormal (schizophrenia) expression levels of the genes of Table 2” value [1] was “effectively reverses the abnormal expression levels”.
